Data as given in PubChem BioAssay AID1259405 (NCATS, 2018)
Here is one part, drawn at random, of about 50,000 reagents. About 4,000 of all reagents (8%) were called active. 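Mouse siRNA library applied to hamster cells; one well for each siRNA.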 The numbers tell different reagents against one gene apart.

Purpose: 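Mouse-designed siRNAs used to find CHO productivity engineering targets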 (primary screen)
Cell system: Chinese hamster CHO-K1 ovary cells with stable secreted eGFP expression
Reagent: single siRNA against mouse genes, 0.8 pmol siRNA per well (2 µl of 400 nM stock)
Timing: 3 days
Measurement: 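Per-well intracellular GFP measured by laser scanning cytometry, plus viability from ATP luminescence, each relative to plate median of non-targeting control wells, in %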
Scale: GFP, % of control: higher = more GFP per well, higher productivity; viability (ATP), % of control: higher = more viable cells (more ATP)
Call rule: 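a knock-down is called active if GFP reaches 120% or more of non-targeting control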

no.	target	siRNA no.	GFP, % of control	viability (ATP), % of control	activity call
1	Fut2	1	124	125	active
2	Fut2	2	89.6	142	inactive
3	Fut2	3	154	122	active
4	Or2ag2b	1	56	61	inactive
5	Or2ag2b	2	72.5	63.9	inactive
6	Or2ag2b	3	101	80	inactive
7	Dhx8	1	68.1	66.2	inactive
8	Dhx8	2	93.8	98.2	inactive
9	Dhx8	3	97.1	120	inactive
10	Repin1	1	42.3	58	inactive
11	Repin1	2	73.8	76.5	inactive
12	Repin1	3	65.5	92	inactive
13	Sgk3	1	88.8	84.1	inactive
14	Sgk3	2	60.9	74.2	inactive
15	Sgk3	3	68.9	55.8	inactive
16	Or51a8	1	18.3	40.3	inactive
17	Or51a8	2	89.8	86.4	inactive
18	Or51a8	3	79.9	63.8	inactive
19	Or8k33	1	89.7	72.7	inactive
20	Or8k33	2	76.7	83.8	inactive
21	Or8k33	3	50.2	107	inactive
22	Sv2b	1	129	111	active
23	Sv2b	2	146	95.5	active
24	Sv2b	3	62.2	81.4	inactive
25	Fgfr1op2	1	66.5	69.7	inactive
26	Fgfr1op2	2	72.4	56	inactive
27	Fgfr1op2	3	72.9	78	inactive
28	Cacng1	1	86	113	inactive
29	Cacng1	2	108	89.2	inactive
30	Plk4	1	74.9	79.4	inactive
31	Trpc4ap	1	77.5	88.5	inactive
32	Trpc4ap	2	91.9	87.7	inactive
33	Trpc4ap	3	99.7	97.2	inactive
34	Bicd2	1	22.4	19.5	inactive
35	Bicd2	2	64.3	92.5	inactive
36	Bicd2	3	83.2	93.6	inactive
37	Hmgcll1	1	62.6	62.7	inactive
38	Hmgcll1	2	97.4	77	inactive
39	Hmgcll1	3	38.4	52.4	inactive
40	Apool	1	73.5	90.3	inactive
41	Apool	2	58.3	26.9	inactive
42	Apool	3	77	101	inactive
43	Cnnm4	1	85.6	102	inactive
44	Cnnm4	2	70.3	68	inactive
45	Cnnm4	3	98.1	109	inactive
46	Lrp8	1	74.5	66.4	inactive
47	Lrp8	2	71.7	86.2	inactive
48	Lrp8	3	85.6	49	inactive
49	Tmem176b	1	49.7	78.3	inactive
50	Tmem176b	2	58.9	99.7	inactive
51	Tmem176b	3	92.2	65.9	inactive
52	Zmynd12	1	66.7	92.5	inactive
53	Zmynd12	2	97	69.1	inactive
54	Foxi2	1	65	67	inactive
55	Foxi2	2	54.5	69.7	inactive
56	Foxi2	3	73.3	91.8	inactive
57	Pabir1	1	57.8	75.9	inactive
58	Pabir1	2	89.8	88	inactive
59	Pabir1	3	46.8	69.2	inactive
60	Or2bd2	1	34.4	45.2	inactive
61	Or2bd2	2	101	77.9	inactive
62	Or2bd2	3	57	94.9	inactive
63	Map1s	1	63.3	53.8	inactive
64	Map1s	2	75.1	70.8	inactive
65	Map1s	3	103	72.8	inactive
66	Vmn2r1	1	70.8	67.7	inactive
67	Vmn2r1	2	60.3	54.6	inactive
68	Vmn2r1	3	67.8	73.9	inactive
69	Elovl4	1	83.6	92.6	inactive
70	Elovl4	2	68.8	175	inactive
71	Elovl4	3	72.8	92.4	inactive
72	Hspbp1	1	73.5	59.2	inactive
73	Hspbp1	2	84.1	66.5	inactive
74	Tcl1b4	1	106	99.2	inactive
75	Tcl1b4	2	70.7	94.8	inactive
76	Tcl1b4	3	146	106	active
77	Cdc25a	1	88.7	64.9	inactive
78	Cdc25a	2	100	107	inactive
79	Cdc25a	3	75.6	91.9	inactive
80	Itgam	1	66.6	74.9	inactive
81	Itgam	2	66.4	79.1	inactive
82	Trp53rkb	1	153	95	active
83	Trp53rkb	2	69.8	86.2	inactive
84	Trp53rkb	3	78.5	85.2	inactive
85	B4galt4	1	106	102	inactive
86	B4galt4	2	82.4	116	inactive
87	B4galt4	3	72.9	94.1	inactive
88	Pisd-ps1	1	72.1	50.7	inactive
89	Pisd-ps1	2	114	66.1	inactive
90	Pisd-ps1	3	99.8	89.4	inactive
91	Npnt	1	71.4	52.7	inactive
92	Npnt	2	75.2	79.7	inactive
93	Npnt	3	26.3	43.6	inactive
94	Faxc	1	69.3	69.2	inactive
95	Faxc	2	28.1	77	inactive
96	Faxc	3	95.7	124	inactive
97	Tchp	1	89.6	64.1	inactive
98	Tchp	2	69	81.6	inactive
99	Tchp	3	101	113	inactive
100	B4galt5	1	105	108	inactive
101	B4galt5	2	65.6	73.6	inactive
102	B4galt5	3	92.8	105	inactive
103	Atp6v0d1	1	44	60.9	inactive
104	Atp6v0d1	2	66.1	70.8	inactive
105	Atp6v0d1	3	52.9	61.7	inactive
106	Serpinb7	1	80.8	92.2	inactive
107	Serpinb7	2	65.9	82.5	inactive
108	Serpinb7	3	41.5	44.7	inactive
